Results on one molecule are retold here after paper PMC5065530.

These are yes or no findings as the source states them, for the method shown. Binding seen in cells or lysates may run through a third protein. Some binding calls cover weakened binding; strength is not graded here. Where a sequence is shown, tags or fusion partners need not be part of it.

This experiment addresses T1, Flag-HA-tagged WT 53BP1 (p53-binding protein 1), Q12888.
T1 chain: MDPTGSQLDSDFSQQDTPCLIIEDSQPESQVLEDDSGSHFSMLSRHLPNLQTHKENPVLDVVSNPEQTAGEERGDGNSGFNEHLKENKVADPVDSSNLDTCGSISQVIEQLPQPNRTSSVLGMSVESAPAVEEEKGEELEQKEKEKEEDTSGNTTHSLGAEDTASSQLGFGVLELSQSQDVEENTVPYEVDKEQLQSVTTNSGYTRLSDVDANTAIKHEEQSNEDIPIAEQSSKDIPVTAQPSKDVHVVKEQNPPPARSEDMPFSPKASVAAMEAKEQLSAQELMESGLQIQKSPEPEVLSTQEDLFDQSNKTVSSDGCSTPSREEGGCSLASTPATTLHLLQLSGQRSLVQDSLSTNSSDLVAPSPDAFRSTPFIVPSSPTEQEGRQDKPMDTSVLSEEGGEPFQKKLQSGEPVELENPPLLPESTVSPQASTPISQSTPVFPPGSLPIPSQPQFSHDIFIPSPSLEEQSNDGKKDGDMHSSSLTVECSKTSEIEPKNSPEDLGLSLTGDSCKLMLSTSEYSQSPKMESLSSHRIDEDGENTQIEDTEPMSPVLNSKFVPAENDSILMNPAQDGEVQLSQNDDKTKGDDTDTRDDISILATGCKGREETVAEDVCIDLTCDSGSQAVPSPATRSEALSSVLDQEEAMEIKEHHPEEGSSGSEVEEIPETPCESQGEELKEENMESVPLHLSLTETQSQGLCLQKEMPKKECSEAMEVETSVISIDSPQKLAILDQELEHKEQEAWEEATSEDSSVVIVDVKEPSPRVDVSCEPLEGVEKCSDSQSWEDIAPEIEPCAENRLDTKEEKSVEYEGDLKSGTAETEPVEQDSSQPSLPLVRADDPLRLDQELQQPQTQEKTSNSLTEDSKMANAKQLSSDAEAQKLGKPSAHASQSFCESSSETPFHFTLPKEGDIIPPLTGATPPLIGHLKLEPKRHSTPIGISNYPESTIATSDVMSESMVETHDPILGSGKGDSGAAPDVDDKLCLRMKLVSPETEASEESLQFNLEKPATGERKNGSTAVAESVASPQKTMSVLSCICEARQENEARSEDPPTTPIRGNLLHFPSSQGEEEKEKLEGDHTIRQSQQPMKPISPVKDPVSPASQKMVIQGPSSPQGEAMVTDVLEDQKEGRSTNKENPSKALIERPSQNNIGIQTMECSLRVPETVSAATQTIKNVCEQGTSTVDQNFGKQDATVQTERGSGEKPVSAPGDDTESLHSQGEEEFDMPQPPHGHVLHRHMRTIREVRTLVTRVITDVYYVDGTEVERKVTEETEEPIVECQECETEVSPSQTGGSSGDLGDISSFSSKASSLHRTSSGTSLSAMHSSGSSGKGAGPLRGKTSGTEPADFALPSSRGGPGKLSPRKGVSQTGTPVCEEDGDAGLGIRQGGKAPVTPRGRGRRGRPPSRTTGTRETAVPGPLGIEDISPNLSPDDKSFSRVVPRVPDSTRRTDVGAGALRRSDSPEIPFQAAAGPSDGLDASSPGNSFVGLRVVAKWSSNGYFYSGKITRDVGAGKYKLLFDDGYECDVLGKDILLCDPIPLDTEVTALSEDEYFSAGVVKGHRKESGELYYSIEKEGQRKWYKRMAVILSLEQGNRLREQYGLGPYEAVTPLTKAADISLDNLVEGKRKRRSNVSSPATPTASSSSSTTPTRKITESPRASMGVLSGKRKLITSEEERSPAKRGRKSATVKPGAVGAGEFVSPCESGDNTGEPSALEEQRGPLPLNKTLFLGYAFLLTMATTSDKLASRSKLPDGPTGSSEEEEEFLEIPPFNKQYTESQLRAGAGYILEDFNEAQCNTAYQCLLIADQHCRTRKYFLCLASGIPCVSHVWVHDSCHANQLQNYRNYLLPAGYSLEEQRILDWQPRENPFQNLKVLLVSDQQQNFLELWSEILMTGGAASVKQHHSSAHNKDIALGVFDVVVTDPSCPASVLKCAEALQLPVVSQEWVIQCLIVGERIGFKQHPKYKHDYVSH
Briefly: co-IP; Flag-HA-53BP1 complexes purified on anti-FLAG M2 magnetic resin from 1-2 mg dialysed lysate (20 mM HEPES pH 7.9, 100 mM KCl) of N3-treated stably complemented 53BP1Δ MCF-7 lines; interacting proteins by immunoblotting. As to conditions: remark: other sources report otherwise.

B1: Ubiquitin Specific Protease USP28, Q96RU2 1-1077 (enzyme)
chain: MTAELQQDDAAGAADGHGSSCQMLLNQLREITGIQDPSFLHEALKASNGDITQAVSLLTDERVKEPSQDTVATEPSEVEGSAANKEVLAKVIDLTHDNKDDLQAAIALSLLESPKIQADGRDLNRMHEATSAETKRSKRKRCEVWGENPNPNDWRRVDGWPVGLKNVGNTCWFSAVIQSLFQLPEFRRLVLSYSLPQNVLENCRSHTEKRNIMFMQELQYLFALMMGSNRKFVDPSAALDLLKGAFRSSEEQQQDVSEFTHKLLDWLEDAFQLAVNVNSPRNKSENPMVQLFYGTFLTEGVREGKPFCNNETFGQYPLQVNGYRNLDECLEGAMVEGDVELLPSDHSVKYGQERWFTKLPPVLTFELSRFEFNQSLGQPEKIHNKLEFPQIIYMDRYMYRSKELIRNKRECIRKLKEEIKILQQKLERYVKYGSGPARFPLPDMLKYVIEFASTKPASESCPPESDTHMTLPLSSVHCSVSDQTSKESTSTESSSQDVESTFSSPEDSLPKSKPLTSSRSSMEMPSQPAPRTVTDEEINFVKTCLQRWRSEIEQDIQDLKTCIASTTQTIEQMYCDPLLRQVPYRLHAVLVHEGQANAGHYWAYIYNQPRQSWLKYNDISVTESSWEEVERDSYGGLRNVSAYCLMYINDKLPYFNAEAAPTESDQMSEVEALSVELKHYIQEDNWRFEQEVEEWEEEQSCKIPQMESSTNSSSQDYSTSQEPSVASSHGVRCLSSEHAVIVKEQTAQAIANTARAYEKSGVEAALSEVMLSPAMQGVILAIAKARQTFDRDGSEAGLIKAFHEEYSRLYQLAKETPTSHSDPRLQHVLVYFFQNEAPKRVVERTLLEQFADKNLSYDERSISIMKVAQAKLKEIGPDDMNMEEYKKWHEDYSLFRKVSVYLLTGLELYQKGKYQEALSYLVYAYQSNAALLMKGPRRGVKESVIALYRRKCLLELNAKAASLFETNDDHSVTEGINVMNELIIPCIHLIINNDISKDDLDAIEVMRNHWCSYLGQDIAENLQLCLGEFLPRLLDPSAEIIVLKEPPTIRPNSPYDLCSRFAAVMESIQGVSTVTVK
B1: the binding result was “binds”.
